Where “and” joins values, the source holds several entries; their conditions need not be identical. Equal entries are not always repeated. This is one part of the list. Single values are uncertain here, since repeats match poorly.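 Fusion between ACE2-bearing and full-length-spike-bearing U2OS cells was measured by imaging as the percentage of nuclei with both cell types' fluorescent markers. An inhibitory hit is a non-toxic compound whose fusion z-score is below -3, more than three standard deviations beneath the plate's DMSO wells.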

The test relates to U2OS ACE2 x SARS-CoV-2 spike co-culture. In words: cell-cell fusion (fraction fused) z-score vs plate DMSO control; higher = more fusion. Conditions: 30 µM; 5 h; toxicity class: non-toxic, passed QC.
For the compound `CC(C)CCCC(C)C1CCC2C3CC[C@H]4CCCC[C@]4(C)C3CC[C@]12C` (stereo not given in full), the “cell-cell fusion (z-score)” value was inactive: 3.04. The result for `Cn1ccnc1` [1-Methylimidazole] reads inactive: 2.13; that for `CC(=O)[C@H]1CC[C@H]2[C@@H]3CC[C@H]4C[C@H](O)CC[C@]4(C)[C@H]3C(=O)C[C@]12C` [5alpha-Pregnan-3alpha-ol-11,20-dione], inactive: 3.09. The result for `Br.CCCN(CCC)[C@@H]1CCc2cccc(O)c2C1` [R-(+)-8-Hydroxy-DPAT hydrobromide] reads inactive: 1.76; that for `Cc1c[nH]c2ccccc12`, inactive: 1.93. Next, `O=c1[nH]c(=O)n(C2C[C@@H](O)[C@@H](CO)O2)cc1F` (stereo not given in full): inactive: 1.24. Regarding `CC[C@H](CCC(C)[C@H]1CCC2C3CCC4C[C@@H](O)CC[C@]4(C)C3CC[C@@]21C)C(C)C` (stereo not given in full), the “cell-cell fusion (z-score)” value was inactive: 1.28. Regarding `CC(N)Cc1c[nH]c2ccc(OCc3cccs3)cc12.Cl` (stereo not given), the “cell-cell fusion (z-score)” value is inactive: 2.9.

With `Cc1ccccc1-c1cc(N2CCN(C)CC2)ncc1N(C)C(=O)C(C)(C)c1cc(C(F)(F)F)cc(C(F)(F)F)c1` [Netupitant], the “cell-cell fusion (z-score)” value is inactive: 1.59. Regarding `CC[N+](CC)(CC)CCOc1cccc(OCC[N+](CC)(CC)CC)c1OCC[N+](CC)(CC)CC.[I-].[I-].[I-]` [Gallamine triethiodide], the “cell-cell fusion (z-score)” value was inactive: 1.48.

As for `CS(=O)(=O)[O-].C[n+]1ccccc1/C=N/O`, the “cell-cell fusion (z-score)” value was inactive: 1.75. On to `Cl.Cl.O=C(O)COCCN1CCN(C(c2ccccc2)c2ccc(Cl)cc2)CC1` (stereo not given) [Cetirizine dihydrochloride], for which the “cell-cell fusion (z-score)” value is inactive: 1.39. As for `Cl.Cl.O=C(O)COCCN1CCN(C(c2ccccc2)c2ccc(Cl)cc2)CC1` (stereo not given), the “cell-cell fusion (z-score)” value is inactive: 1.12. The result for `Cl.O=C(Nc1ccccc1)OCC(CN1CCCCC1)OC(=O)Nc1ccccc1` (stereo not given) reads active: -3.79; that for `NC(=O)c1cnccn1`, inactive: 1.55; that for `CCCCNC(=O)NS(=O)(=O)c1ccc(C)cc1` [Tolbutamide], inactive: 3.17. As to `O=C(NOCC1CC1)c1ccc(F)c(F)c1Nc1ccc(I)cc1Cl`, the “cell-cell fusion (z-score)” value was inactive: 2.45. As for `CC(c1cc2ccccc2s1)N(O)C(N)=O` (stereo not given) [Zileuton], the “cell-cell fusion (z-score)” value was inactive: 2.96. Next, `O=C(O)[C@H](O)[C@@H](O)C(=O)O.O=C(c1ccc(F)cc1)C1CCN(CCn2c(=O)[nH]c3ccccc3c2=O)CC1`: inactive: 2.16. The result for `Cc1nn(-c2ccccc2)c(C)c1/C=N/N1CCN(Cc2ccccc2)CC1` reads inactive: 2.17; that for `C[C@]12C=CC(=O)C=C1CC[C@@H]1[C@@H]2[C@@H](O)C[C@@]2(C)[C@H]1CC[C@]2(O)C(=O)CO` [Prednisolone], inactive: 2.48. Consider `CC(=O)CC(c1ccc([N+](=O)[O-])cc1)c1c(O)c2ccccc2oc1=O` (stereo not given), for which the “cell-cell fusion (z-score)” value is inactive: 0.818. Turning to `CC(C(=O)[O-])c1cccc(Oc2ccccc2)c1.CC(C(=O)[O-])c1cccc(Oc2ccccc2)c1.O.O.[Ca+2]` (stereo not given) [Fenoprofen calcium dihydrate], the “cell-cell fusion (z-score)” value is inactive: 1.96.

As to `CC(C)NCC(O)COc1ccc(CC(N)=O)cc1` (stereo not given) [Atenolol], the “cell-cell fusion (z-score)” value was inactive: 2.65. As for `CCc1nn(CCCN2CCN(c3cccc(Cl)c3)CC2)c(=O)n1CCOc1ccccc1`, the “cell-cell fusion (z-score)” value was inactive: 2.79. Turning to `NCC[C@H](O)C(=O)N[C@@H]1C[C@H](N)[C@@H](O[C@H]2O[C@H](CN)[C@@H](O)[C@H](O)[C@H]2O)[C@H](O)[C@H]1O[C@H]1O[C@H](CO)[C@@H](O)[C@H](N)[C@H]1O.O=S(=O)(O)O.O=S(=O)(O)O` [Amikacin Sulfate Salt], the “cell-cell fusion (z-score)” value is inactive: 1.1. In the case of `O=c1ccn([C@@H]2O[C@H](COP(=O)([O-])OP(=O)([O-])OP(=O)([O-])O)[C@@H](O)[C@H]2O)c(=O)[nH]1.[Na+].[Na+].[Na+]`, the “cell-cell fusion (z-score)” value is inactive: 2.03. For `C=CCc1ccc2c(c1)OCO2`, the “cell-cell fusion (z-score)” value was inactive: 1.93. With `NC(N)=O`, the “cell-cell fusion (z-score)” value was inactive: 2.15 and inactive: 3.7. Regarding `O=C([O-])CC1CCCc2ccccc2C1O.[Na+]` (stereo not given), the “cell-cell fusion (z-score)” value was inactive: 3.62. The result for `COC(=O)C1=C(C)NC(C)=C(C(=O)OCC(C)C)C1c1ccccc1[N+](=O)[O-]` (stereo not given) [Nisoldipine] reads inactive: -2.38. Next, `CC(=O)O[C@H]1C[C@@H](OC(C)=O)C(C)(C)C2C[C@@H](O)[C@]3(C)C(CC[C@@]4(C)[C@H](c5ccoc5)OC(=O)[C@H]5O[C@]543)[C@]21C` (stereo not given in full): inactive: 1.27; `Oc1ccc(-c2nc(-c3ccncc3)c(-c3ccc(F)cc3)[nH]2)cc1`: inactive: 0.681; `O=C(O[C@@H]1Cc2c(O)cc(O)cc2O[C@@H]1c1cc(O)c(O)c(O)c1)c1cc(O)c(O)c(O)c1` [(-)-Epigallocatechin gallate]: inactive: 1.51. `Oc1cc2c(cc1O)CN(C(=S)NCCc1ccc(Cl)cc1)CCC2` [Capsazepine]: the “cell-cell fusion (z-score)” value was inactive: -1.41. Regarding `CCCCC[C@H](O)/C=C/[C@H]1[C@H](O)CC(=O)[C@@H]1C/C=C\CCCC(=O)O` [Prostaglandin E2 (PGE2)], the “cell-cell fusion (z-score)” value is inactive: 0.197. As to `CC(CN(C)C)CN1c2ccccc2Sc2ccccc21.O=C(O)C(O)C(O)C(=O)O` (stereo not given), the “cell-cell fusion (z-score)” value was inactive: 0.911.

As to `CC(=O)O.N=C(N)N/N=C/c1c(Cl)cccc1Cl` [Guanabenz acetate], the “cell-cell fusion (z-score)” value is inactive: -0.118. Take `Nc1ccc(C(=O)[O-])cc1.[K+]`: the “cell-cell fusion (z-score)” value is inactive: 1.34. As to `CC(O)C1=C(C)/C2=C/C3=N/C(=C\C4=C(CCC(O)=O)C(C)=C(N4)/C=C4\N=C(\C=C\1/N\2)C(C)=C4C(C)O)/C(CCC(O)=O)=C3C` (stereo not given), the “cell-cell fusion (z-score)” value was inactive: 2.18. Consider `OC[C@H]1O[C@H](OC[C@H]2O[C@@H](O)[C@H](O)[C@@H](O)[C@@H]2O)[C@H](O)[C@@H](O)[C@H]1O`, for which the “cell-cell fusion (z-score)” value was inactive: 1.82. With `O=C1CC(c2ccc(O)cc2)Oc2ccccc21` (stereo not given), the “cell-cell fusion (z-score)” value was inactive: 1.58. Turning to `NC1CCCC[C@H]1N.O=C1[O][Pt][O]C1=O` (stereo not given in full), the “cell-cell fusion (z-score)” value was inactive: 1.84. With `COc1cc(N)c(Cl)cc1C(=O)NC1CCN(CCCOc2ccc(F)cc2)CC1OC` (stereo not given), the “cell-cell fusion (z-score)” value was inactive: 2.58. `O=c1[nH]cnc2c1ncn2[C@H]1C[C@H](O)[C@@H](CO)O1` [2'-Deoxyinosine]: the “cell-cell fusion (z-score)” value is inactive: 1.94.

Values taken from the supplement of paper PMC8104966.
